Laboratory results taken from PubChem BioAssay AID504444 (National Center for Advancing Translational Sciences (NCATS), 2011).
Screen size: about 360,000 compounds; about 7,500 (2.1%) were called active. Inconclusive means that the source gave no clear call. Such entries were picked first, then a sample of the others. The call rests on the fitted dose curve; in most records, active means well fitted inhibition curve with a large enough effect; inconclusive means small, poorly fitted or top-dose-only effect, or effect the other way; inactive means flat fitted curve, though single readings scatter. Where the call is inconclusive, the potency comes from a doubtful curve fit.

Experiment: Nrf2 qHTS screen for inhibitors; further: nearly all actives have a fitted effect of over 60% in size
Settings: A549 ARE-Fluc reporter, luciferase luminescence, 18-24 h; activity change, negative = inhibition: at 46 µM (top of the series)
In short: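 In this cell-based qHTS, ARE-driven firefly luciferase in A549 cells reports Nrf2 activity; the luminescent signal after BugLite lysis is the measured value, with a prior CellTiter-Fluor read for cell health.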
On the % scale 0 is the no-effect control and ±100 the full control effect; potency means the concentration at half of the fitted maximal effect.

SMILES	activity change, negative = inhibition	Potency
O=C(NCc1ccc(Cl)cc1)C1CCCN(c2ncnc3c2nc2n3CCCCC2)C1 (stereo not drawn)	inactive: -0.194%	
Cn1cnnc1SCC(=O)N1CCN(C(=O)c2ccco2)CC1	inactive: -9.64%	
N#Cc1nc(Nc2cc(F)cc(F)c2)nc(NC2CCCC2)n1		inconclusive: 29.1 µM [falling, single point]
C=CCc1c(C)nc2c(C(=O)O)cnn2c1C	inactive: 0.227%	
COc1ccc(C2Nc3ccccc3C(=O)N2c2ccccc2)cc1CN1CCOCC1 (stereo not drawn)		inconclusive: 23.1 µM [activator, partial curve, poor fit]
COC(=O)c1cc2occc2n1Cc1nc(-c2ccc(C)cc2)oc1C		inconclusive: 16.4 µM [activator, single point]
Cc1ccc(C(=O)N2CC(=O)Nc3ccc(F)cc3C2c2ccccc2)cc1 (stereo not drawn)		inconclusive: 16.4 µM [falling, partial curve, poor fit]
COCCOC(=O)C1=C(C)N(c2ccccc2)C(=S)NC1c1ccccc1C(F)(F)F (stereo not drawn)		inconclusive: 23.1 µM [falling, single point]
Cc1cccc(NC(=O)c2cnc3sccn3c2=O)c1		inconclusive: 1.46 µM [activator, partial curve, poor fit]
CC1CCN(S(=O)(=O)c2ccc(C(=O)NCc3ccco3)cc2)CC1		inconclusive: 14.6 µM [falling, partial curve, poor fit]
CCOc1ccc(-c2nnc(NC(=O)c3ccc(OCC(C)C)c(OC)c3)o2)cc1		inconclusive: 29.1 µM [falling, single point]
CCOc1ccc(CNS(=O)(=O)c2ccc(-c3cc(C(F)(F)F)on3)s2)cc1	inactive: 6.95%	
CCOC(=O)C1=C(c2ccccc2)Nc2ncnn2C1c1ccc(C(=O)O)cc1 (stereo not drawn)	inactive: 0.404%	
CN(C)C(=S)N=c1ssc(=S)n1Cc1cccnc1	inactive: 1.57%	
COc1ccc(-c2cnc(N)nc2-c2ccc(OC)cc2)cc1	inactive: 2.13%	
Fc1cccc(-c2cc3nc4c(c(NCc5ccco5)n3n2)CCCC4)c1		inconclusive: 0.82 µM [activator, full curve, poor fit]
O=Nc1c(O)n(Cc2ccc(Cl)c(Cl)c2)c2ccccc12	inactive: -9.05%	
COc1cc(OC)c2c(-c3cccc(-c4ccc(CO)cc4)c3)cc(=O)oc2c1		inconclusive: 29.1 µM [falling, single point]
CN1/C(=C\C=[N+](C)c2ccccc2)C(C)(C)c2ccccc21		active: 0.82 µM
Fc1ccccc1COc1cccc(/C=N/n2cnnc2)c1		inconclusive: 18.4 µM [falling, partial curve, poor fit]
Cc1sc(NC(=S)NC(=O)c2ccco2)c(C(N)=O)c1C		inconclusive: 2.31 µM [activator, full curve]
C#CCOCCOCCOCCNc1nc(N2CCN(C(=O)CCCCCCCCCCNC(=O)[C@H](CCCCN)n3cc(CCCC(=O)O)nn3)CC2)nc(N2CCN(C(=O)CCCCCCCCCCNC(=O)[C@H](CCCN=C(N)N)n3cc(C[C@@H](C)CC)nn3)CC2)n1		inconclusive: 23.1 µM [falling, single point]

Part of the list above, as a markdown table:

| SMILES | activity change, negative = inhibition | Potency |
| --- | --- | --- |
| CCOc1ccc(CNS(=O)(=O)c2ccc(-c3cc(C(F)(F)F)on3)s2)cc1 | inactive: 6.95% |  |
| CCOC(=O)C1=C(c2ccccc2)Nc2ncnn2C1c1ccc(C(=O)O)cc1 (stereo not drawn) | inactive: 0.404% |  |
| CN(C)C(=S)N=c1ssc(=S)n1Cc1cccnc1 | inactive: 1.57% |  |

Further results follow:

SMILES	activity change, negative = inhibition	Potency
Cn1nnc2cc(C(=O)Nc3ccccc3F)ccc21		inconclusive: 29.1 µM [activator, single point]
Cc1cc(C)c2nc(NC(=O)c3ccc(OCC4CCCO4)cc3)sc2c1 (stereo not drawn)		inconclusive: 0.259 µM [activator, full curve]
COc1ccc(C(=O)NC2CC(C)(C)Cc3c2cnn3-c2ccccc2C)c(OC)c1OC (stereo not drawn)		inconclusive: 29.1 µM [falling, single point]
CC(CCc1ccccc1)NCC(O)COc1ccccc1 (stereo not drawn)		inconclusive: 14.6 µM [activator, partial curve, poor fit]
O=[N+]([O-])c1ccc(/C=N/N=C/c2ccc([N+](=O)[O-])o2)o1		inconclusive: 29.1 µM [falling, partial curve, poor fit]
CC(=O)c1nn(-c2ccc(OC(F)(F)F)cc2)nc1Nc1ccc(C)cc1	inactive: 5.13%	
N=c1oc2ccccc2cc1C(=O)Nc1ccc(F)cc1		inconclusive: 29.1 µM [activator, single point]
O=C(Nc1ccc(Cl)c(Cl)c1)Nc1ccccc1C(=O)O		inconclusive: 13 µM [activator, partial curve]
Cc1ccc(C(=O)N(C)c2ccc(OCC(=O)N3c4ccc(C)cc4C4CN(C)CCC43)cc2)cc1 (stereo not drawn)		inconclusive: 7.31 µM [activator, partial curve]
Cc1ccc(NC(/C=C/N(C)C)=C/C(=O)C(F)(F)F)c(C)c1	inactive: -21.3%	
Cc1ccc(NC(=S)NNc2ncc(C(F)(F)F)cc2Cl)cc1		active: 23.1 µM
Cc1ccc2nc(-c3ccc(NC(=O)COc4ccc(Cl)c(C)c4)cc3)sc2c1		inconclusive: 23.1 µM [activator, partial curve, poor fit]
COc1ccc(Nc2cc(C)c3cc(NC(=O)Cc4c(F)cccc4Cl)ccc3n2)cc1	inactive: -15.2%	
Cc1cc(Cl)n2c(nc3ccccc32)c1C#N		inconclusive: 29.1 µM [falling, single point]
O=C(c1c(Cl)nc2sccn12)N(C(=O)c1c(Cl)nc2sccn12)c1ccc(Cl)cn1		inconclusive: 2.91 µM [activator, partial curve, poor fit]
O=C(Nc1ccc(F)cc1)c1ccccc1F		inconclusive: 4.61 µM [activator, full curve]
COCc1nnc(NC(=O)c2ccc(S(=O)(=O)N(C)Cc3ccccc3)cc2)o1		inconclusive: 16.4 µM [falling, single point]
CC(=O)c1ccc(-c2ccc(-c3cc(=O)oc4c(C(C)C)ccc(C)c34)cc2)cc1		active: 23.1 µM
Oc1cccc(C(Nc2nccs2)c2ccc3cccnc3c2O)c1 (stereo not drawn)		active: 16.4 µM
COc1ccc(-c2c(S(=O)(=O)c3ccccc3)cnn2-c2ccccc2)cc1		inconclusive: 14.6 µM [falling, partial curve, poor fit]
CSc1nc2nccc(-c3ccc4c(c3)OCO4)n2n1		inconclusive: 0.82 µM [activator, full curve, poor fit]
